# Results as given in publication PMC7688965.
# Chains of the proteins cited; added tags and fusions are not shown.
# UniProt Q15008: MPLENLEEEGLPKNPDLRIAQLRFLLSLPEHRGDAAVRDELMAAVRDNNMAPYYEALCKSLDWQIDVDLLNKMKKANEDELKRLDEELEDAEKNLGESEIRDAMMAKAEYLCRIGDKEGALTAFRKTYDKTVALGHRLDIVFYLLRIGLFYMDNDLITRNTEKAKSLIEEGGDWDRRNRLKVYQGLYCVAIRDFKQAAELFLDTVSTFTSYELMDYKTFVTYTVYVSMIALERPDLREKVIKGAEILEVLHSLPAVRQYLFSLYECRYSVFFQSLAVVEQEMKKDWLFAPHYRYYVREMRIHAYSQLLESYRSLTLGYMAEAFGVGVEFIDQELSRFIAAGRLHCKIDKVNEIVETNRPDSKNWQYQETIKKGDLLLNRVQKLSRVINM
# UniProt Q13200: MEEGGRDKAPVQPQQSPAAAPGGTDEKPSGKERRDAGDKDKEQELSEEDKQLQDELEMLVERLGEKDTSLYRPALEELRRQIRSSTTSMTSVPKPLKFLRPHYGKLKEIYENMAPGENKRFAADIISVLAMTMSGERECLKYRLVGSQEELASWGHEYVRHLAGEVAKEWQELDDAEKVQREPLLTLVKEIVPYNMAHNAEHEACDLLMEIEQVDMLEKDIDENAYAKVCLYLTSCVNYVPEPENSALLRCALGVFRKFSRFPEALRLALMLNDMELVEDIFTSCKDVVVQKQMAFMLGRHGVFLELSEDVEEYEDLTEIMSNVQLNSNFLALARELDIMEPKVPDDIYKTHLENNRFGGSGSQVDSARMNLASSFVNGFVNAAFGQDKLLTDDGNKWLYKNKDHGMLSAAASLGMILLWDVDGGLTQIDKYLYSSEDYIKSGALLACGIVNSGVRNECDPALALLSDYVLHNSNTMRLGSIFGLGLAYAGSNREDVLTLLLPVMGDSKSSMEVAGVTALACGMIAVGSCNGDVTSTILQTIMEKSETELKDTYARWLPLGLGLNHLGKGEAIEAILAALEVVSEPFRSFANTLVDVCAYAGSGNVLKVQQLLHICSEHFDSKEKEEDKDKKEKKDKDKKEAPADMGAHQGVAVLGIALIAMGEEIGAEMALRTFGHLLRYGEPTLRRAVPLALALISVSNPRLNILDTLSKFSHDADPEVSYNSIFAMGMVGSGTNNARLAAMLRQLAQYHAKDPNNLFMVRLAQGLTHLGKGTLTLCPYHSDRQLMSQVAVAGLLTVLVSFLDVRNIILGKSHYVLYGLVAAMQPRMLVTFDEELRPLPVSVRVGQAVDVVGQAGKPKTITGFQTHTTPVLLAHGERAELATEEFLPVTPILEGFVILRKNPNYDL
# These are yes or no findings as the source states them, for the method shown. In cells and extracts the contact can be indirect. Some binding calls cover weakened binding; strength is not graded here.
# Target: Hop (endogenous) (human (endogenous in HEK293T)) (UniProt P31948)
# Experiment: co-IP; Hop IP from WT HEK293T cells: 2-3 mg cell extract with 5 µg anti-Hop antibodies, Dynabeads-Protein G, 4 °C; lysis buffer 10 mM Tris-HCl pH 7.5, 50 mM NaCl, 1 mM EDTA, 1 mM DTT, 10% glycerol, 10 mM Na-molybdate, 0.01% Triton X-100; normal IgG as control; immunoblot
row,Substance,binding
1,Psmd6 (from UniProt Q15008 1-389),binds
2,Psmd2 (from UniProt Q13200 1-908),binds
